# Measurements taken from article PMC7489219 (Molecular Brain, 2020).
# Structures can show the parent of a compound that is named as a salt.
# Test system: T1, primary mouse cortical neurons
# T1 construct: primary cortical neurons, DIV 10
# Assay: cells
# Set-up: Protection from NMDA-induced (30 uM, 10 min) neuronal death; Hoechst nuclear morphology by automated microscopy
# Details: Cortical neurone, 20 h, read-out: % inhibition, inhibition of NMDA-induced cell death (protection score), 30 min pre-treatment
# Method: On DIV 10, compounds were applied to the cells reaching an end concentration of 10 μM. Cells were incubated for 30 min at 37 °C, 5% CO2 before adding NMDA (30 μM). Cells were incubated for another 10 min in the incubator, then washed twice with defined minimal medium containing 10 μM of the respective compound and incubated for an additional 20 h before readout. Untreated (no NMDA) and NMDA-only stimulated wells were treated with 0.1% DMSO. […] After 15 min of incubation at room temperature, cells were washed twice with phosphate buffered saline. […] Dead neurons were identified by amorphous or shrunken nuclei using CellProfiler and CellProfiler Analyst software. For all cell death analyses the experimental unit (N) is defined as an independent experiment using an independent neuronal preparation. For each independent experiment, data from 3 replicate wells (i.e., from 36 images), representing an average of 3000 cells was analyzed per condition. The survival rate S was calculated by dividing the number of living cells by the total number of cells. The survival rate was then used to calculate the protection score according to Scompound−Svehicle/Suntreated−Svehicle×100=%protection , where ‘compound’ refers to compound + NMDA treatment, ‘vehicle’ refers to vehicle + NMDA treatment, and ‘untreated’ refers to DMSO control. […] As a proof of principle, we next used our assay to screen two commercially available drug libraries. In these screens, primary cortical cells were incubated with test compounds at 10 μM concentration for 30 min before addition of 30 μM NMDA. After 10 min NMDA treatment, cells were washed with fresh medium and kept in the presence of test compounds for 20 h until assessment of cell viability. […] This library covers structurally diverse drugs from several fields such as oncology, cardiology, immunology, and neurology/psychiatry.
row,Compound,inhibition at 10 µM
1,CN1C[C@@H]2c3ccccc3Oc3ccc(Cl)cc3[C@H]2C1 (racemic) [Asenapine],-16.8%
2,CNC(=O)c1ccccc1Sc1ccc2c(/C=C/c3ccccn3)n[nH]c2c1 [Axitinib],21.7%
3,"CC(C)OC(=O)C(C)(C)Oc1ccc(C(=O)c2ccc(Cl)cc2)cc1 [Fenofibrate (Tricor, Trilipix)]",-1.71%
4,CN1[C@@H]2CCC[C@H]1C[C@@H](NC(=O)c1nn(C)c3ccccc13)C2 [Granisetron HCl],-7.66%
5,O=C(CCCCCCC(=O)Nc1ccccc1)NO [Vorinostat (SAHA)],25.4%
